Data: the supplement of paper PMC10849652
Some of the results follow.

Protein sequences, listed by entry. Tags and fused reporters are not part of them. Lines headed by an entry give the natural chain unless they say otherwise; changes in a name come on top.
UniProt P41229: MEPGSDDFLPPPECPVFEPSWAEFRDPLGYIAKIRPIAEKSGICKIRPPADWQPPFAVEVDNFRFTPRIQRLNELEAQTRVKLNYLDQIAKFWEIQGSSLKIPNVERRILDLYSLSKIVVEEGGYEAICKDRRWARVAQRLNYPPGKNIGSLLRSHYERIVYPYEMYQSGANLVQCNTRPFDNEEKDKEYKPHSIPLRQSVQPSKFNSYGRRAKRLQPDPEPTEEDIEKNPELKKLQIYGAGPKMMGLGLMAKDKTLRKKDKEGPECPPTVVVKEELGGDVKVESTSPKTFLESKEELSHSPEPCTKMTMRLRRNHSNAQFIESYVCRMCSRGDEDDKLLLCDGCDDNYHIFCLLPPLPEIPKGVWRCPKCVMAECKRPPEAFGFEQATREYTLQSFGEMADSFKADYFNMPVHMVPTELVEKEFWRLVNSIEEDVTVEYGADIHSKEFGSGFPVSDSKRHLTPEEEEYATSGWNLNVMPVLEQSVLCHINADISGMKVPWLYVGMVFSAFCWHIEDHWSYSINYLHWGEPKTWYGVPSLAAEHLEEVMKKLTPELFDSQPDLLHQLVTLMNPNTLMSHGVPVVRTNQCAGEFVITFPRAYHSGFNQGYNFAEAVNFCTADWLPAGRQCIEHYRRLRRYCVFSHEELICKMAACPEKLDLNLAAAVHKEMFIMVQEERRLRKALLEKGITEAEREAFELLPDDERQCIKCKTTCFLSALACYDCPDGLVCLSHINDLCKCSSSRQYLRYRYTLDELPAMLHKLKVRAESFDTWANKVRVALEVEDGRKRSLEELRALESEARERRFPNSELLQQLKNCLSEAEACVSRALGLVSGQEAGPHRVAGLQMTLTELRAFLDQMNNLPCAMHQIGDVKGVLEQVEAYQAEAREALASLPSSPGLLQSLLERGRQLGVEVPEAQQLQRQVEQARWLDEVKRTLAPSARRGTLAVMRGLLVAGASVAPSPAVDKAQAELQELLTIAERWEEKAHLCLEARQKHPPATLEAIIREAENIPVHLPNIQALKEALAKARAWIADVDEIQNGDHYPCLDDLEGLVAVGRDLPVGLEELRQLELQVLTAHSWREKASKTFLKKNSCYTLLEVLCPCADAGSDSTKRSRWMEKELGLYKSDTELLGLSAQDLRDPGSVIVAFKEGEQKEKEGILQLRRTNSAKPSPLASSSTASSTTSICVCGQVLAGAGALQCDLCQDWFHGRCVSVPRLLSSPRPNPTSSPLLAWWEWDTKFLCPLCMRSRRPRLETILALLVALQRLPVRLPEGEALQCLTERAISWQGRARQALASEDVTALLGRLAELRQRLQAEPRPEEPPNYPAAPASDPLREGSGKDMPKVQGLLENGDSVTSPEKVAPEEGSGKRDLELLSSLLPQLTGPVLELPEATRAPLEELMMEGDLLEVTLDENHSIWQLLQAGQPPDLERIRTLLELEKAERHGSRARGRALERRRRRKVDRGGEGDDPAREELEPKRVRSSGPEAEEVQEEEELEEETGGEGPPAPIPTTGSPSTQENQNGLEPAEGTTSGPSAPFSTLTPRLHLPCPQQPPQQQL
UniProt Q8IY47: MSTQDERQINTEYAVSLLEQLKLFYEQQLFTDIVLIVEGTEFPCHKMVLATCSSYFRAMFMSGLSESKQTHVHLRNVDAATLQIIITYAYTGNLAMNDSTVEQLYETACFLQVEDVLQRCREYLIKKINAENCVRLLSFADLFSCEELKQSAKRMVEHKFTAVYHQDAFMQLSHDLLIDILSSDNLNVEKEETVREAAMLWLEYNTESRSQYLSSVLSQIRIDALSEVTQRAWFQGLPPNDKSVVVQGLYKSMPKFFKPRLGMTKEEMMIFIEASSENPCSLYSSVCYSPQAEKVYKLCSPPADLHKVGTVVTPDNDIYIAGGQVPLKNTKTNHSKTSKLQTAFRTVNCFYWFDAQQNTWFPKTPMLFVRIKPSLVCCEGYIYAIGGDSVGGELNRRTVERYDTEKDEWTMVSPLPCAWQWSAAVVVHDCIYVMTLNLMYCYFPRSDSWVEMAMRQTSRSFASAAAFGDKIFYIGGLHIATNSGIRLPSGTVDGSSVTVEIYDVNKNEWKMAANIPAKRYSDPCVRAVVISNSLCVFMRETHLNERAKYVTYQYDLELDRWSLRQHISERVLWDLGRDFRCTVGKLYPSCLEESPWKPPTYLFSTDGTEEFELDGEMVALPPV
UniProt Q9NVR0: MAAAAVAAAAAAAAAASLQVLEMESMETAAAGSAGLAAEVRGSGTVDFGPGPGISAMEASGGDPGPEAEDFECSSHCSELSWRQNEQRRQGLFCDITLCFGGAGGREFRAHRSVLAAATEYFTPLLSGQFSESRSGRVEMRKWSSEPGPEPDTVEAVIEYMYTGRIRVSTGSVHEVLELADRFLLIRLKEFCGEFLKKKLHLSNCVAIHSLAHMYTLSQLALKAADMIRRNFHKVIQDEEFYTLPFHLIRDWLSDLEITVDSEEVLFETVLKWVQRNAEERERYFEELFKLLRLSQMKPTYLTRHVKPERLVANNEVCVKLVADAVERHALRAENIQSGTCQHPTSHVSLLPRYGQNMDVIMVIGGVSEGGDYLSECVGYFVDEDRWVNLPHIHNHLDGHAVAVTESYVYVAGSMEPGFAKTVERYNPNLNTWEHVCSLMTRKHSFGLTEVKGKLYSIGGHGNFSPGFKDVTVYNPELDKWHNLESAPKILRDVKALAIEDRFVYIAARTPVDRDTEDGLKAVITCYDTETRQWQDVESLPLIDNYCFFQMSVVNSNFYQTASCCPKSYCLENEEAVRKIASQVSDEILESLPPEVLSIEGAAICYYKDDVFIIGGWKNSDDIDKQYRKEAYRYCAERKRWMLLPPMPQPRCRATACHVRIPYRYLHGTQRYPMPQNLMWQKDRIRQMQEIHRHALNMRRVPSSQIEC
UniProt P33176: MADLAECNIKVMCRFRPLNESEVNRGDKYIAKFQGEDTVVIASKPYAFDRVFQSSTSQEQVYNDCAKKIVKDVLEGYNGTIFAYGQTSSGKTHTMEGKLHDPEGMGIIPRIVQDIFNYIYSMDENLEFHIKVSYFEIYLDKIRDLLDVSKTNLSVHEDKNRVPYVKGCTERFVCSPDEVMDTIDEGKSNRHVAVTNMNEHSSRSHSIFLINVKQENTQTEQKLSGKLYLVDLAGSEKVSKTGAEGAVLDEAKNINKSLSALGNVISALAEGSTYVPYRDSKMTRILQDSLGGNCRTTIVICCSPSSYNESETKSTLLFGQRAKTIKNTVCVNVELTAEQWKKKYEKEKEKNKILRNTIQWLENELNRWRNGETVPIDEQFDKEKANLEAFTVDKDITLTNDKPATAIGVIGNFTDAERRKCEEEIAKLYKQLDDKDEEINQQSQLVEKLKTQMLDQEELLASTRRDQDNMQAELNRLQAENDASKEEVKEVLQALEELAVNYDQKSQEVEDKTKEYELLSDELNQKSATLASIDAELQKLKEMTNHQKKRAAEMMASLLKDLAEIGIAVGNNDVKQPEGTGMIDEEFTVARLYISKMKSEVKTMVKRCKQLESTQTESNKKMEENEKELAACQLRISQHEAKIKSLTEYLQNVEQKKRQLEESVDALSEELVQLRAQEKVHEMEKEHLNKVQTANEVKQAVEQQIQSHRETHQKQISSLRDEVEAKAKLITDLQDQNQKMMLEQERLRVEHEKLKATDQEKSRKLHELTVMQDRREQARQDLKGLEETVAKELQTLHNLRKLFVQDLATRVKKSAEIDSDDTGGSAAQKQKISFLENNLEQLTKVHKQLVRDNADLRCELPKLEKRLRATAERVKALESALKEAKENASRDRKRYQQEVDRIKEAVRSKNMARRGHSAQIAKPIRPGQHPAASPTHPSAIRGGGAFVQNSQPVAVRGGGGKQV
UniProt Q14667: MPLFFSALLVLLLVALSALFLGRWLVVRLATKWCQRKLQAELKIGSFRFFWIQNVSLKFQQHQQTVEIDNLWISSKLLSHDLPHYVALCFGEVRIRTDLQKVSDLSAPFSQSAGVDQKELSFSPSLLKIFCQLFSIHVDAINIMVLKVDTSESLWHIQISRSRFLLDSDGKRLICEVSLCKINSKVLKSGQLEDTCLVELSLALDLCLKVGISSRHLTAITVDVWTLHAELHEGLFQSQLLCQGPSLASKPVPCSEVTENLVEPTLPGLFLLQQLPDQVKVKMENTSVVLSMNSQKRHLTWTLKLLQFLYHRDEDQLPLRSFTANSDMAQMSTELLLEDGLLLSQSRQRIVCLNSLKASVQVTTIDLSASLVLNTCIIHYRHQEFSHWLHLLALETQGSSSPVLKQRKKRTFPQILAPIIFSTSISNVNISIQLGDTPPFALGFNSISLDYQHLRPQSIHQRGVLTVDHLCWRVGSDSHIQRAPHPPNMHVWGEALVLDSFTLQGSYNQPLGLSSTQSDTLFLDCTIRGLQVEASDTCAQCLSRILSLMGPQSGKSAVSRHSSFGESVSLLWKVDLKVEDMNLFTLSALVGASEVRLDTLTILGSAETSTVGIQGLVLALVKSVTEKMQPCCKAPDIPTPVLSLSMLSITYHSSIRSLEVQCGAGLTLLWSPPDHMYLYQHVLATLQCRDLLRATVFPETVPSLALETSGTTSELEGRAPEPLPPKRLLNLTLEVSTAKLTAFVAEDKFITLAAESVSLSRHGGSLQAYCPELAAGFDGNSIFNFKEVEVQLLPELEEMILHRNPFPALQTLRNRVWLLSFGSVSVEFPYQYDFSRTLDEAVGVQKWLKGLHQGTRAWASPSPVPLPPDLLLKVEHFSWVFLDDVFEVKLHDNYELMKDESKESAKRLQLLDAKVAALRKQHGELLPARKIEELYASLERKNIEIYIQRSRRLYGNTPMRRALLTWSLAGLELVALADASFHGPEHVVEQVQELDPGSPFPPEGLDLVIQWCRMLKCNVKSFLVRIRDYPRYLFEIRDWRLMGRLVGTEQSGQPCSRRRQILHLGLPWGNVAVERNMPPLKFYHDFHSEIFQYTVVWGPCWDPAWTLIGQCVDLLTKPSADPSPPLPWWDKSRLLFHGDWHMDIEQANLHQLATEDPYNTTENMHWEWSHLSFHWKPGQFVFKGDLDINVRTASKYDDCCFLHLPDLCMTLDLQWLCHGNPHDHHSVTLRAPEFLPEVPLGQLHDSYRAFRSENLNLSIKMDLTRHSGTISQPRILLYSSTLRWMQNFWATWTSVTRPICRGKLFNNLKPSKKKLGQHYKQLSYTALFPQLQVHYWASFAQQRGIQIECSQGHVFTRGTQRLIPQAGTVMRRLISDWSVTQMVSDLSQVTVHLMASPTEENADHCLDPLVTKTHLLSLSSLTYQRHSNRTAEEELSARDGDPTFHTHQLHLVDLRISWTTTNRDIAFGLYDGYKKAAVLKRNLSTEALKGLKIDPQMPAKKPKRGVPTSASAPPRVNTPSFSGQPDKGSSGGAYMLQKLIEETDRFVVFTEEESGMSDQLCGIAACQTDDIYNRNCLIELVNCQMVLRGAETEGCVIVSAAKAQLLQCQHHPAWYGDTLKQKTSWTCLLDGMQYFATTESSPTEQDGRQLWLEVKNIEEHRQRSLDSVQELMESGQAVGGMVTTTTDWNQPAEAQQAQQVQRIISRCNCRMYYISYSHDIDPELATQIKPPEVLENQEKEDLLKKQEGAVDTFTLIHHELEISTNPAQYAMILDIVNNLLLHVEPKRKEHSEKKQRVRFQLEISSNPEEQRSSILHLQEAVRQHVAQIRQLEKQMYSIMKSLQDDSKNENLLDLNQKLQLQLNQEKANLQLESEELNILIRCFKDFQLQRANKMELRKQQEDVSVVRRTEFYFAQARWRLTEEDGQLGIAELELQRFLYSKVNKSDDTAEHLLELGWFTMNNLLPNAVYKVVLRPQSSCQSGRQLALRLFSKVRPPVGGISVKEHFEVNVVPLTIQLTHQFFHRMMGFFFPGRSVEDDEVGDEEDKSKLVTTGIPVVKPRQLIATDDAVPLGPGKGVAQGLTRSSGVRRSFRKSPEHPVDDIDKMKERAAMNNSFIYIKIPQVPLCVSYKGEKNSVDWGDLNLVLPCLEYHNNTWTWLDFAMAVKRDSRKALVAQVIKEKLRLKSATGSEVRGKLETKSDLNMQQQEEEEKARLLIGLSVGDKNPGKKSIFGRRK
UniProt Q7L273: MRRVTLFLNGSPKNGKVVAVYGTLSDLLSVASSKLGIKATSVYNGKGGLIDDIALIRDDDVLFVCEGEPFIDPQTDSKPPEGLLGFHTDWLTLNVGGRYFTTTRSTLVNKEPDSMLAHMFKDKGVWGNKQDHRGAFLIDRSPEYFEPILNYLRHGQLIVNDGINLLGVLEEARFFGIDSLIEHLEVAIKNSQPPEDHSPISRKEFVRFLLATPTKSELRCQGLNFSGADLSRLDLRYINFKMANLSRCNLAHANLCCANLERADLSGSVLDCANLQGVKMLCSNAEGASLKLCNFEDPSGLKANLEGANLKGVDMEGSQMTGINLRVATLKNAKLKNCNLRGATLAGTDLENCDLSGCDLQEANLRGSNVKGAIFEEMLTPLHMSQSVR

What follows are targets tested with CC(C)(C)Cn1c(N)nc2ccc(-c3[nH]c(C(C)(C)C)nc3-c3ccc(F)cc3)nc21 [ralimetinib] (assay: log2 fold change, soluble protein after heating vs DMSO (PISA); higher = thermal stabilisation; K562 cells, 10 uM, 30 min; active = over 0.2 and 3.5 SD of the protein, either way, in both replicates (recomputed)).
Procedure, shortened: (§1)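 Thermal stability values are relative to control samples and come from duplicates. They are expressed as log2 fold changes. For measurement, K562 cells (2×10^6 cells/mL) received 10 μM compound for 30 min, and aliquots were heated for 3 min over 48°C-58°C, pooled, and extracted at 4°C in PBS with 0.5% NP-40. Soluble protein, the supernatant after 21,000xg for 90 min, was quantified by TMTpro 16plex LC-MS/MS with equalised channel sums.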

log2 fold change, inactive:
KAZN isoform 3 (UniProt Q674X7) -0.027, KNSTRN (UniProt Q9Y448) 0.078, KDM5C (UniProt P41229) -0.028, KLC1 isoform 6 (UniProt Q07866) -0.021, KBTBD2 (UniProt Q8IY47) -0.015, KLHL11 (UniProt Q9NVR0) 0.137, KDSR (UniProt Q06136) -0.02, KIF5B (UniProt P33176) 0.064, KIAA0100 (UniProt Q14667) -0.095, KHSRP (UniProt Q92945) -0.053, KCTD9 (UniProt Q7L273) -0.055

These targets were tested with CC(C)(O)CC(=O)NCCn1ccc2ncnc(Nc3ccc(Oc4cccc(C(F)(F)F)c4)c(Cl)c3)c21 in the same assay as above.
Procedure, shortened: as §1

log2 fold change, inactive:
KATNB1 (UniProt Q9BVA0) -0.094, KMT2D isoform 3 (UniProt O14686) 0.047, KCMF1 (UniProt Q9P0J7) -0.082, JPT1 (UniProt Q9UK76) 0.04, JUND (UniProt P17535) 0.042, JMJD1C (UniProt Q15652) -0.064, KDM8 isoform 3 (UniProt Q8N371) -0.081, JAGN1 (UniProt Q8N5M9) -0.096, KIDINS220 (UniProt Q9ULH0) 0.028, KCTD15 (UniProt Q96SI1) -0.016, KCTD3 (UniProt Q9Y597) 0.023, KIAA1143 (UniProt Q96AT1) 0.046, KHK isoform 2 (UniProt P50053) 0.016, KIF23 (UniProt Q02241) -0.105, KIAA1522 isoform 2 (UniProt Q9P206) 0.041, KLF3 (UniProt P57682) 0.054, KIF2A isoform 4 (UniProt O00139) 0, KIF5A (UniProt Q12840) -0.032, IVNS1ABP (UniProt Q9Y6Y0) -0.031, KPNA3 (UniProt O00505) -0.028, KIAA0319L (UniProt Q8IZA0) 0.012, KCNAB2 (UniProt Q13303) 0.035, KAZN isoform 3 (UniProt Q674X7) 0.098, KNSTRN (UniProt Q9Y448) 0.027, KDM5C (UniProt P41229) -0.04, KLC1 isoform 6 (UniProt Q07866) -0.022, KBTBD2 (UniProt Q8IY47) -0.074, KLHL11 (UniProt Q9NVR0) -0.022, KDSR (UniProt Q06136) -0.051, KIF5B (UniProt P33176) -0.016, KIAA0100 (UniProt Q14667) -0.164, KHSRP (UniProt Q92945) 0.052, KCTD9 (UniProt Q7L273) -0.03

These targets were tested with CC(C)C1=C2N=C(C=C(N2N=C1)NCC3=CC=CC=C3)NCCCCCCN in the same assay as above.
Procedure, shortened: as §1

log2 fold change, inactive:
KATNB1 (UniProt Q9BVA0) -0.06, KMT2D isoform 3 (UniProt O14686) 0.021, KCMF1 (UniProt Q9P0J7) -0.038, JPT1 (UniProt Q9UK76) 0.041, JUND (UniProt P17535) 0.075, JMJD1C (UniProt Q15652) -0.013, KDM8 isoform 3 (UniProt Q8N371) -0.014, JAGN1 (UniProt Q8N5M9) -0.069, KIDINS220 (UniProt Q9ULH0) 0.098, KCTD15 (UniProt Q96SI1) 0.102, KCTD3 (UniProt Q9Y597) 0.091, KIAA1143 (UniProt Q96AT1) 0.058, KHK isoform 2 (UniProt P50053) 0.07, KIF23 (UniProt Q02241) -0.154, KIAA1522 isoform 2 (UniProt Q9P206) -0.053, KLF3 (UniProt P57682) -0.1, KIF2A isoform 4 (UniProt O00139) -0.025, KIF5A (UniProt Q12840) 0.025, IVNS1ABP (UniProt Q9Y6Y0) -0.217, KPNA3 (UniProt O00505) -0.042, KIAA0319L (UniProt Q8IZA0) -0.077, KCNAB2 (UniProt Q13303) 0.162, KAZN isoform 3 (UniProt Q674X7) 0.091, KNSTRN (UniProt Q9Y448) 0.01, KDM5C (UniProt P41229) -0.15, KLC1 isoform 6 (UniProt Q07866) -0.001, KBTBD2 (UniProt Q8IY47) 0.007, KLHL11 (UniProt Q9NVR0) 0.173, KDSR (UniProt Q06136) 0.068, KIF5B (UniProt P33176) 0.013, KIAA0100 (UniProt Q14667) 0.105, KHSRP (UniProt Q92945) 0.077, KCTD9 (UniProt Q7L273) 0.073
